These are yes or no findings as the source states them, for the method shown. Binding seen in cells or lysates may run through a third protein. A yes stands for co-enrichment or nearness to the bait. Other partners may have been found. Tags and fused reporters may be left off the sequences shown.

Protein sequences, listed by entry. Tags and fused reporters are not part of them.
UniProt Q9NPI1: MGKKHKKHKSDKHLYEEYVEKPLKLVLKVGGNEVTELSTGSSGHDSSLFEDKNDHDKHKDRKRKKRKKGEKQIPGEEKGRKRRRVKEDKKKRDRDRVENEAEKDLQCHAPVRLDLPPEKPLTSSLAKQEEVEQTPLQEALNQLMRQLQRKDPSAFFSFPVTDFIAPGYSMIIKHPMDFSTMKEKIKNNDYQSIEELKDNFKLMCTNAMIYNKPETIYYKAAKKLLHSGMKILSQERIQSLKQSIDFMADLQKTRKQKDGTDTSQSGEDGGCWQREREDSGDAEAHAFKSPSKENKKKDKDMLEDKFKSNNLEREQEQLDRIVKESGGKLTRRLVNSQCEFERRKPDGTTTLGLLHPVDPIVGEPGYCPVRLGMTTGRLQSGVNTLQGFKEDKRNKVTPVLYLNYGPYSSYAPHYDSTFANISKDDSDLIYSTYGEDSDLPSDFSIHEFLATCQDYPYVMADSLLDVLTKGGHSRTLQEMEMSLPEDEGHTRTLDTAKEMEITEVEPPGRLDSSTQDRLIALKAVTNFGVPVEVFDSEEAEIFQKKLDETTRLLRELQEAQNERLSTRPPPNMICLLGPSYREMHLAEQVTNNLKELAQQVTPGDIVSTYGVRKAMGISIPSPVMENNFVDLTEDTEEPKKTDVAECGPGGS
UniProt Q9H8M2: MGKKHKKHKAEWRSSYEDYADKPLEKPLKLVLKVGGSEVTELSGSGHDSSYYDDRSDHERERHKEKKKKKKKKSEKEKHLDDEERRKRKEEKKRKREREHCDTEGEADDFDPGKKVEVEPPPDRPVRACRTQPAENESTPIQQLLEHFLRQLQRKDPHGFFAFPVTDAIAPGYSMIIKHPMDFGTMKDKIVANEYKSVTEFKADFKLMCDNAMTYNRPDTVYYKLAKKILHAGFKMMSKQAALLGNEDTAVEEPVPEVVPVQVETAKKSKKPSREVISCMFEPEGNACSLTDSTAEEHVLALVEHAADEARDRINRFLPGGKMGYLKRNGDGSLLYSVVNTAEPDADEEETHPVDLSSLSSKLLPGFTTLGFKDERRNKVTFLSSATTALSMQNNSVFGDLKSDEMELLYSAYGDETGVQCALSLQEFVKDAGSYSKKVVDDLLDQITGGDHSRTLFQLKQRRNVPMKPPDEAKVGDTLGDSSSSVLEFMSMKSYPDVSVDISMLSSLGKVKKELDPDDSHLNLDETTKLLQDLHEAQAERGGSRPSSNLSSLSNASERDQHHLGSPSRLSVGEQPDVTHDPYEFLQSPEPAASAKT

The assay has as its target T1, HA-tagged VDR (vitamin D receptor), wild type (human) (UniProt P11473).
T1 sequence (acetylated lysine at 91 (K91Ac), looked up): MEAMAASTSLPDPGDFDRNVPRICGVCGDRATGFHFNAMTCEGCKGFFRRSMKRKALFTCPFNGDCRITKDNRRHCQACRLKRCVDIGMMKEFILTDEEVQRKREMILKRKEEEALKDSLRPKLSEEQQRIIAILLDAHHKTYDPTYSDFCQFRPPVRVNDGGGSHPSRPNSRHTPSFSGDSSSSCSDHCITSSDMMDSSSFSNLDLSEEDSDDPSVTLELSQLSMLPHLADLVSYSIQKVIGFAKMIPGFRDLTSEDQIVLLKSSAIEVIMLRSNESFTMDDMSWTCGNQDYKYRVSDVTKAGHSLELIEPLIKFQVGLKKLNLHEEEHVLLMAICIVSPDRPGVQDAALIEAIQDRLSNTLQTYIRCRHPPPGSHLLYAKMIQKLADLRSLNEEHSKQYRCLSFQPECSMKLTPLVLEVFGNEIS
As to the kind of experiment: immunoprecipitation of HA-VDR from human beta-like cells, mass spectrometry (FIG. 4A).

As for “endogenous BRD7 (human beta-like cells) (from UniProt Q9NPI1 1-651)”, the binding result is “binds”.
To “endogenous bromodomain-containing protein 9 (BRD9) (from UniProt Q9H8M2 1-597)” belongs “binds”.

These data come from patent US20200129532A1.
